Source: PubChem BioAssay AID1347075 (National Center for Advancing Translational Sciences (NCATS), 2019)
Hit rate of the full screen: of about 400,000 compounds, about 5,500 (1.4%) were called active. This list was built around the results that the source calls inconclusive (neither active nor inactive); the mix of calls is not that of the screen. Calls follow the shape of the dose curve; as a rule, active = well fitted cell-killing curve with a large enough effect; inconclusive = small, poorly fitted or top-dose-only effect, or effect the other way; inactive = flat fitted curve, though single readings scatter. Where the call is inconclusive, the potency comes from a doubtful curve fit.
Potency is read from the fitted curve at half-maximal effect.

Test: qHTS assay for MDR1-selective chemotherapeutics: Primary screen using the parental adenocarcinoma cell KB-3-1; also: nearly all actives have a fitted effect of over 60% in size
Settings: KB-3-1 viability, CellTiter-Glo ATP luminescence, 72 h; series mostly up to 46.1 µM
Procedure, shortened: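 72 h, 37 °C compound treatment of KB-3-1 parental cells; CellTiter-Glo added, 10 min, luminescence read. Data corrected against DMSO-only plates and normalized before curve fitting.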
For `CCCCC(=O)NS(=O)(=O)c1ccc(NS(C)(=O)=O)cc1`, the Potency was inconclusive: 3.66 µM [rising, partial curve, poor fit]. For `CC(C)(C)NC(=S)NC1CC1`, the Potency was “inactive”. In the case of `Cc1nn(-c2ccc(C(F)(F)F)cn2)c(C)c1Oc1ccccc1O`, the Potency was inconclusive: 20.6 µM [cytotoxic, single point]. For `COc1cc(NCCCNC(C)C)c2nccc(C)c2c1`, the Potency was inconclusive: 20.6 µM [cytotoxic, single point]. With `O=C(Nc1ccc(F)cc1)N(CCCN1CCOCC1)Cc1cc2cc3c(cc2[nH]c1=O)OCO3` the Potency was inconclusive: 29.1 µM [rising, single point]. In the case of `O=C(Nc1c(C(=O)O)oc2ccc(Br)cc12)c1ccccc1`, the Potency was inconclusive: 29.1 µM [cytotoxic, single point]. In the case of `C=CCNc1nc(NCc2cccc(OC)c2)c2sc(-c3ccccc3)cc2n1`, the Potency was inconclusive: 29.1 µM [cytotoxic, single point]. With `O=S(=O)(c1ccccc1)c1ncc(C(F)(F)F)cc1Cl` the Potency was “inactive”. In the case of `O=C(/C=C/c1cccs1)N1CCN(c2ccc(F)cc2)CC1`, the Potency was “inactive”. In the case of `O=C(NN(c1ccccc1)c1ccccc1)c1ccc([N+](=O)[O-])o1`, the Potency was inconclusive: 23.1 µM [cytotoxic, single point]. With `COc1ccc(CC(=O)Nc2ccccc2-c2ccccc2)cc1OC` the Potency was inconclusive: 20.6 µM [cytotoxic, partial curve]. In the case of `COc1ccc(NC(=S)N2CCN(S(C)(=O)=O)CC2)cc1`, the Potency was “inactive”. In the case of `COc1ccc(NC(=O)Cc2csc(COc3cccc(C)c3)n2)cc1OC`, the Potency was inconclusive: 20.6 µM [cytotoxic, single point]. With `Cn1c(=O)[nH]c(=O)c2c1nc(NCc1ccccc1)n2CCCc1ccccc1` the Potency was “inactive”. With `COc1ccc(N(CC(O)Cn2c3ccccc3c3ccccc32)S(=O)(=O)c2ccccc2)cc1` (configuration not stated) the Potency was inconclusive: 7.31 µM [cytotoxic, partial curve, poor fit]. With `C[C@H](CO)N1C[C@H](C)[C@@H](CN(C)CC2CCCCC2)Oc2c(NC(=O)Cc3ccccc3)cccc2C1=O` the Potency was inconclusive: 29.1 µM [cytotoxic, single point]. For `CCCCN(C)CC(O)Cn1cc(/C=C/C(=O)c2ccc(OC)c(OC)c2)c2ccccc21` (configuration not stated), the Potency was inconclusive: 29.1 µM [cytotoxic, single point]. With `Cc1cccc(-n2c(=O)c3c(n4cnnc24)-c2ccccc2CC32CCCCC2)c1` the Potency was inconclusive: 29.1 µM [cytotoxic, single point]. For `CCC(C)(C)n1nnnc1C(c1cc2cc(C)cc(C)c2[nH]c1=O)N1CCCC1` (configuration not stated), the Potency was “inactive”. In the case of `Cc1csc(Sc2nc3c(c(=O)[nH]c(=O)n3C)n2CCCc2ccccc2)n1`, the Potency was inconclusive: 4.11 µM [cytotoxic, full curve, poor fit]. For `O=C(Cc1ccccc1)N/N=C/c1cccc([N+](=O)[O-])c1`, the Potency was “inactive”. For `O=C(Nc1ccc(Cl)cc1)N[C@@H]1c2c(ccc3ccccc23)OC[C@@H]1CO`, the Potency was inconclusive: 29.1 µM [cytotoxic, single point]. With `Cc1nc(N2CCN(Cc3ccccc3)CC2)nc2c1C(=O)CCC2` the Potency was inconclusive: 29.1 µM [cytotoxic, single point]. With `O=C(Nc1ccc(Br)cn1)c1cnn2c1NC(=C1CC1)C=C2C(F)F` the Potency was inconclusive: 29.1 µM [rising, single point]. With `COc1ccc(OC)c(NC(=O)c2cccc(Cn3cc(Br)c([N+](=O)[O-])n3)c2)c1` the Potency was inconclusive: 2.91 µM [rising, partial curve, poor fit]. In the case of `CN(CC(=O)Nc1ccc(F)cc1)C(=O)c1cccc(S(=O)(=O)N2CCN(c3ccc(F)cc3)CC2)c1`, the Potency was inconclusive: 16.4 µM [cytotoxic, single point]. With `O=C(NN=Cc1c(O)ccc2ccccc12)c1ccc2c(c1)OCO2` the Potency was inconclusive: 3.66 µM [cytotoxic, full curve]. For `CSc1ncccc1C(=O)OCC(=O)Nc1cccc(S(=O)(=O)N2CCOCC2)c1`, the Potency was inconclusive: 3.26 µM [rising, partial curve, poor fit]. With `CCCNC(=O)c1c(NC(=O)C2COc3ccccc3O2)sc2c1CCCC2` (configuration not stated) the Potency was inconclusive: 29.1 µM [cytotoxic, single point]. For `CCS(=O)(=O)C(C)(CCl)C(=O)Nc1ccc(C(=O)OC)cc1` (configuration not stated), the Potency was “inactive”. With `C[C@H](O)[C@@H]1CN2CCc3c([nH]c4ccccc34)[C@@H]2C[C@@H]1N(C)C(=O)Nc1cc(Cl)cc(Cl)c1` the Potency was inconclusive: 18.4 µM [cytotoxic, single point]. With `CN(C(=O)COC(=O)c1ccccc1SCC(=O)N1CCCC1)C1CCS(=O)(=O)C1` (configuration not stated) the Potency was inconclusive: 20.6 µM [rising, single point]. For `CC(=O)Nc1cccc(C(=O)OC(C)C(=O)NC(=O)NC2CCCCC2)c1` (configuration not stated), the Potency was “inactive”. In the case of `Cc1ccc(S(=O)(=O)Nc2cccnc2)cc1`, the Potency was “inactive”. For `COC(=O)[C@]12CCCCC=C1N(Cc1cccc3ccccc13)C(=O)[C@H](CC(=O)NCc1cccc(C(F)(F)F)c1)C2`, the Potency was inconclusive: 23.1 µM [cytotoxic, single point]. For `CCc1nc2ccc(C(=O)N3CCN(C(=O)c4ccco4)CC3)cn2c1N(C=O)Cc1ccc(OC)cc1`, the Potency was “inactive”. With `O=c1[nH]c2ccc(S(=O)(=O)N3CCCC3)cc2[nH]1` the Potency was inconclusive: 29.1 µM [rising, single point]. For `CC1CCc2c(sc(NC(=O)/C=C/c3cccs3)c2C(=O)O)C1` (configuration not stated), the Potency was active: 18.4 µM. In the case of `CCN(CC)C(=O)c1nn(-c2ccccc2)c2c1C1CCC2(C)C1(C)C` (configuration not stated), the Potency was inconclusive: 25.9 µM [cytotoxic, partial curve, poor fit]. With `Cn1nc([N+](=O)[O-])nc1S(C)(=O)=O` the Potency was inconclusive: 29.1 µM [cytotoxic, single point]. With `Cc1nonc1NC(=O)CSc1nc(C2CCCCC2)nc2ccccc12` the Potency was “inactive”. In the case of `CCOc1ccccc1NC(=O)C(NC(=O)C1CCC(C)CC1)C(C)C` (configuration not stated), the Potency was inconclusive: 16.4 µM [cytotoxic, single point].
